Our source for the binding values is article PMC4754747.

The chains behind the UniProt entries cited, without tags or fusion partners.
UniProt P06732: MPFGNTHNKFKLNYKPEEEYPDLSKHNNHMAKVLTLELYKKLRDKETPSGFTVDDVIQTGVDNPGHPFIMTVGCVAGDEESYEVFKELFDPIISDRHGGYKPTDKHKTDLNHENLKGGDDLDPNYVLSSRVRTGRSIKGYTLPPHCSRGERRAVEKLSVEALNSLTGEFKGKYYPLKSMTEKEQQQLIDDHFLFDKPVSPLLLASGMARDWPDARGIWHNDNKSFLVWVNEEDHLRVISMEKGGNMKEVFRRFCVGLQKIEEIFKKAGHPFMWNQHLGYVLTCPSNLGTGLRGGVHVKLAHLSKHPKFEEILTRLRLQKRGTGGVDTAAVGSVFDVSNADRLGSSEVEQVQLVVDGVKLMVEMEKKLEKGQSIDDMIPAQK

These are yes or no findings as the source states them, for the method shown. Some entries that bind do so weakly or less than the wild type.

For this assay, the target named is human muscle-type creatine kinase homodimer (hMMCK) (human) (UniProt P06732). Description: SEC; gel filtration on Superdex 200 10/300 GL (AKTA purifier) of thermally inactivated samples; temperatures for hMMCK not stated in the text (thermal inactivation: 0.2 mg/ml enzyme in 5 mM Tris-HCl, pH 8.0, 10 min); dimer to monomers; both purified. For orientation: SEC sorts molecules by how far they enter the pores of the column.

For “human muscle-type creatine kinase homodimer (hMMCK) (from UniProt P06732 1-381) (enzyme)”, the binding entry is reported as “binds”.
